# Experimental data taken from patent publication US7041818B2, “DDS compound and method for measurement thereof” (priority 1998, dated 2006).
# Columns and labels:
# [1] = Drug content of DDS compound by peptidase treatment and HPLC of the released hydrolysate; conditions: Britton Robinson buffer pH 6, 40° C.
# [2] = Drug content of DDS compound based on UV absorption; conditions: calibration with DX-8951
# [3] = papain, 4 hours, hydrolysate by HPLC
substance,measurement,setting,value
CM-Dex-PA-Gly-Gly-Gly-Phe-NH—Y′—CH2—O—CO-DX-8951,DX-8951 content of DDS compound,"[1]; α-chymotrypsin, hydrolysate quantified by HPLC",2.5%
same,DX-8951 content of DDS compound,[2],1.7%
"CM-Dex-PA-Gly-Gly-Phe-Gly-NH—(CH2)4—CO-DX-8951 (GGFG; CM-dextran carrier, DX-8951 drug conjugate; Spacer Sequence)",DX-8951 content of DDS compound,[1]; [3],3.0%
same,DX-8951 content of DDS compound,[2],3.1%
CM-Dex-PA-Gly-Gly-Phe-Gly-NH—Y′—CH2—O—CO-DX-8951,DX-8951 content of DDS compound,[1]; [3],4.0%
same,DX-8951 content of DDS compound,[2],3.3%
